Earlier results in patent publication US11564392B2, “Methods of inactivation of viruses using n-methlyglucamide and its derivatives” (BAYER HEALTHCARE LLC, priority 2017, dated 2023).
For at least one compound, name, drawing or mass did not settle the structure.

Details: cited from earlier work

Question: With `CCCCCCCCCCCC(=O)N(C)CC(O)C(O)C(O)C(O)CO` (stereo not shown) [Mega 12, dodecanoyl-N-methylglucamide] as the molecule, how does the critical micelle concentration read?
Answer: The critical micelle concentration was 0.013%.
